# According to the supplement of paper PMC8728848:
# This is one part of the list.
# B1: PX9961Q-bfa-504-27-504 (Bacteroides fragilis) (protein)
# chain: NDWLDRKPADGIPSEDAITNYNDALTARTGMYDGIQGNSNATSYYGARMFYYGDVRADDMQARTQGMRSSSCYEMLYTVDDAPNMWNIPYNVIRRANRLIEAINEKKVTDATEAQIGKIYSEALVVRALVHFDLVRIYGMPYTADNGASLGVPVIVKPLERNDLPSRNTVAEVYTQVITDLTDAINSGYLAKDQTPGYINEWAAKALLTRVYLTKGDNENALKVAEDIITNSPYKLWTNEEYVNAWYKSNGAHTNEMIFEVVNASNDDWTDRNGIAYLLNENGYADAIVTKSFMNMLSQDPKDVRIGMVLPAQYDKDLQEEYGDAKIFINKFPADKDDVGEMRLNNLPLLRLSEVYLSAAEAAAKLGGHQDKAAKYLNEIVQRANPEAKAISEADATVERIILERRKEMIGEGQRYFDALRNNETIVRYKDEGDKGYHYSLIKESQSFDRTYFRAILPIPVDETNVNPNLRAQQNPGY
# Assays:
# Assay in all cases: glycan array binding signal (z-score within array); higher = stronger binding
# Settings in all cases: glycan notation: IUPAC condensed, linker removed
# [1] = biological target: Fuc(a1-2)[Gal(a1-4)]Gal(b1-4)GlcNAc
# Procedure, shortened: (§1)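 Negative Z-scores can be read as non-binding. The Z-score is calculated within each array and then averaged across arrays of one protein sequence at different concentrations or buffers and across linkers. Arrays, 3228 in all, were curated from the Consortium for Functional Glycomics database and kept only where the protein sequence was available.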
# [2] = biological target: Fuc(a1-2)[GalNAc(a1-3)]Gal
# Procedure, shortened: as §1
# [3] = biological target: Fuc(a1-2)[GalNAc(a1-3)]Gal(b1-3)GalNAc(a1-3)[Fuc(a1-2)]Gal(b1-4)GlcNAc
# Procedure, shortened: as §1
# [4] = biological target: Fuc(a1-2)[GalNAc(a1-3)]Gal(b1-3)GalNAc(b1-3)Gal(a1-4)Gal(b1-4)Glc
# Procedure, shortened: as §1
# [5] = biological target: Fuc(a1-2)[GalNAc(a1-3)]Gal(b1-3)GlcNAc
# Procedure, shortened: as §1
# [6] = biological target: Fuc(a1-2)[GalNAc(a1-3)]Gal(b1-3)GlcNAc(b1-2)Man(a1-3)[Fuc(a1-2)[GalNAc(a1-3)]Gal(b1-3)GlcNAc(b1-2)Man(a1-6)]Man(b1-4)GlcNAc(b1-4)GlcNAc
# Procedure, shortened: as §1
# [7] = biological target: Fuc(a1-2)[GalNAc(a1-3)]Gal(b1-3)GlcNAc(b1-2)Man(a1-3)[Fuc(a1-2)[GalNAc(a1-3)]Gal(b1-3)GlcNAc(b1-2)Man(a1-6)]Man(b1-4)GlcNAc(b1-4)[Fuc(a1-6)]GlcNAc
# Procedure, shortened: as §1
# [8] = biological target: Fuc(a1-2)[GalNAc(a1-3)]Gal(b1-3)GlcNAc(b1-3)GalNAc
# Procedure, shortened: as §1
# [9] = biological target: Fuc(a1-2)[GalNAc(a1-3)]Gal(b1-3)GlcNAc(b1-6)GalNAc
# Procedure, shortened: as §1
# [10] = biological target: Fuc(a1-2)[GalNAc(a1-3)]Gal(b1-4)Glc
# Procedure, shortened: as §1
# [11] = biological target: Fuc(a1-2)[GalNAc(a1-3)]Gal(b1-4)GlcNAc
# Procedure, shortened: as §1
# [12] = biological target: Fuc(a1-2)[GalNAc(a1-3)]Gal(b1-4)GlcNAc(b1-2)Man
# Procedure, shortened: as §1
# [13] = biological target: Fuc(a1-2)[GalNAc(a1-3)]Gal(b1-4)GlcNAc(b1-2)Man(a1-3)[Fuc(a1-2)[GalNAc(a1-3)]Gal(b1-4)GlcNAc(b1-2)Man(a1-6)]Man(b1-4)GlcNAc(b1-4)GlcNAc
# Procedure, shortened: as §1
# [14] = biological target: Fuc(a1-2)[GalNAc(a1-3)]Gal(b1-4)GlcNAc(b1-2)Man(a1-3)[Fuc(a1-2)[GalNAc(a1-3)]Gal(b1-4)GlcNAc(b1-2)Man(a1-6)]Man(b1-4)GlcNAc(b1-4)[Fuc(a1-6)]GlcNAc
# Procedure, shortened: as §1
# [15] = biological target: Fuc(a1-2)[GalNAc(a1-3)]Gal(b1-4)GlcNAc(b1-3)Gal(b1-4)GlcNAc
# Procedure, shortened: as §1
# [16] = biological target: Fuc(a1-2)[GalNAc(a1-3)]Gal(b1-4)GlcNAc(b1-3)Gal(b1-4)GlcNAc(b1-3)Gal(b1-4)GlcNAc
# Procedure, shortened: as §1
# [17] = biological target: Fuc(a1-2)[GalNAc(a1-3)]Gal(b1-4)GlcNAc(b1-3)GalNAc
# Procedure, shortened: as §1
# [18] = biological target: Fuc(a1-2)[GalNAc(a1-3)]Gal(b1-4)GlcNAc(b1-3)[Fuc(a1-2)[GalNAc(a1-3)]Gal(b1-4)GlcNAc(b1-6)]GalNAc
# Procedure, shortened: as §1
# [19] = biological target: Fuc(a1-2)[GalNAc(a1-3)]Gal(b1-4)GlcNAc(b1-6)GalNAc
# Procedure, shortened: as §1
# [20] = biological target: Fuc(a1-2)[GalNAc(a1-3)]Gal(b1-4)[Fuc(a1-3)]GlcNAc
# Procedure, shortened: as §1
# [21] = biological target: Fuc(a1-2)[GalNAc(a1-3)]Gal(b1-4)[Fuc(a1-3)]GlcNAc(b1-3)GalNAc
# Procedure, shortened: as §1
# [22] = biological target: Fuc(a1-2)[GalNAc(a1-4)]Gal(b1-4)GlcNAc
# Procedure, shortened: as §1
# [23] = biological target: Fuc(a1-2)[GalNAc(b1-3)]Gal
# Procedure, shortened: as §1
# Fuc(a1-3)GlcNAc = biological target: Fuc(a1-3)GlcNAc
# Procedure, shortened: as §1
# [24] = biological target: Fuc(a1-3)[Gal(b1-4)]Glc6S
# Procedure, shortened: as §1
# [25] = biological target: Fuc(a1-3)[Gal(b1-4)]GlcNAc
# Procedure, shortened: as §1
# [26] = biological target: Fuc(a1-3)[Gal(b1-4)]GlcNAc(b1-2)Man
# Procedure, shortened: as §1
# [27] = biological target: Fuc(a1-3)[Gal(b1-4)]GlcNAc(b1-2)Man(a1-3)[Fuc(a1-3)[Gal(b1-4)]GlcNAc(b1-2)Man(a1-6)]Man(b1-4)GlcNAc(b1-4)GlcNAc
# Procedure, shortened: as §1
# [28] = biological target: Fuc(a1-3)[Gal(b1-4)]GlcNAc(b1-2)Man(a1-3)[Fuc(a1-3)[Gal(b1-4)]GlcNAc(b1-2)Man(a1-6)]Man(b1-4)GlcNAc(b1-4)[Fuc(a1-6)]GlcNAc
# Procedure, shortened: as §1
# [29] = biological target: Fuc(a1-3)[Gal(b1-4)]GlcNAc(b1-3)Gal(b1-3)[Fuc(a1-4)]GlcNAc
# Procedure, shortened: as §1
# [30] = biological target: Fuc(a1-3)[Gal(b1-4)]GlcNAc(b1-3)Gal(b1-4)[Fuc(a1-3)]GlcNAc
# Procedure, shortened: as §1
# [31] = biological target: Fuc(a1-3)[Gal(b1-4)]GlcNAc(b1-3)Gal(b1-4)[Fuc(a1-3)]GlcNAc(b1-3)Gal(b1-4)[Fuc(a1-3)]GlcNAc
# Procedure, shortened: as §1
# [32] = biological target: Fuc(a1-3)[Gal(b1-4)]GlcNAc(b1-3)GalNAc
# Procedure, shortened: as §1
# [33] = biological target: Fuc(a1-3)[Gal(b1-4)]GlcNAc(b1-6)GalNAc
# Procedure, shortened: as §1
# [34] = biological target: Fuc(a1-3)[Gal(b1-4)]GlcNAc(b1-6)[Gal(b1-3)GlcNAc(b1-3)]Gal(b1-4)Glc
# Procedure, shortened: as §1
# [35] = biological target: Fuc(a1-3)[Gal(b1-4)]GlcNAc6S
# Procedure, shortened: as §1
# [36] = biological target: Fuc(a1-3)[Gal3S(b1-4)]Glc
# Procedure, shortened: as §1
# [37] = biological target: Fuc(a1-3)[Gal3S(b1-4)]GlcNAc
# Procedure, shortened: as §1
binder,measurement,setting,value
B1,glycan array binding signal (z-score),[1],1.12
same,glycan array binding signal (z-score),[2],-0.718
same,glycan array binding signal (z-score),[3],-0.253
same,glycan array binding signal (z-score),[4],0.126
same,glycan array binding signal (z-score),[5],-0.332
same,glycan array binding signal (z-score),[6],0.439
same,glycan array binding signal (z-score),[7],-0.402
same,glycan array binding signal (z-score),[8],-0.474
same,glycan array binding signal (z-score),[9],-0.738
same,glycan array binding signal (z-score),[10],-1.4
same,glycan array binding signal (z-score),[11],-0.704
same,glycan array binding signal (z-score),[12],-0.265
same,glycan array binding signal (z-score),[13],-0.023
same,glycan array binding signal (z-score),[14],0.309
same,glycan array binding signal (z-score),[15],0.965
same,glycan array binding signal (z-score),[16],0.044
same,glycan array binding signal (z-score),[17],0.153
same,glycan array binding signal (z-score),[18],-0.308
same,glycan array binding signal (z-score),[19],0.687
same,glycan array binding signal (z-score),[20],-0.217
same,glycan array binding signal (z-score),[21],-0.673
same,glycan array binding signal (z-score),[22],-0.233
same,glycan array binding signal (z-score),[23],-0.282
same,glycan array binding signal (z-score),Fuc(a1-3)GlcNAc,-0.481
same,glycan array binding signal (z-score),[24],0.341
same,glycan array binding signal (z-score),[25],0.177
same,glycan array binding signal (z-score),[26],-0.257
same,glycan array binding signal (z-score),[27],0.155
same,glycan array binding signal (z-score),[28],0.98
same,glycan array binding signal (z-score),[29],-0.095
same,glycan array binding signal (z-score),[30],0.859
same,glycan array binding signal (z-score),[31],-0.3
same,glycan array binding signal (z-score),[32],-0.297
same,glycan array binding signal (z-score),[33],4.03
same,glycan array binding signal (z-score),[34],-0.595
same,glycan array binding signal (z-score),[35],-0.314
same,glycan array binding signal (z-score),[36],-0.651
same,glycan array binding signal (z-score),[37],-0.709

# Part of the list above in another layout.
binder	measurement	setting	value
B1	glycan array binding signal (z-score)	[5]	-0.332
same	glycan array binding signal (z-score)	[11]	-0.704
same	glycan array binding signal (z-score)	[13]	-0.023
same	glycan array binding signal (z-score)	[16]	0.044
same	glycan array binding signal (z-score)	[18]	-0.308
same	glycan array binding signal (z-score)	[25]	0.177
same	glycan array binding signal (z-score)	[27]	0.155
same	glycan array binding signal (z-score)	[28]	0.98
same	glycan array binding signal (z-score)	[34]	-0.595
